Laboratory results: publication PMC6911014
No constants are given. Whether binding was seen depends on the method and setting. Binding seen in cells or lysates may run through a third protein. Some entries that bind do so weakly or less than the wild type.

Target: T1, Elba3 (Drosophila melanogaster (endogenous in embryos)) (UniProt Q9VR19)
T1 sequence: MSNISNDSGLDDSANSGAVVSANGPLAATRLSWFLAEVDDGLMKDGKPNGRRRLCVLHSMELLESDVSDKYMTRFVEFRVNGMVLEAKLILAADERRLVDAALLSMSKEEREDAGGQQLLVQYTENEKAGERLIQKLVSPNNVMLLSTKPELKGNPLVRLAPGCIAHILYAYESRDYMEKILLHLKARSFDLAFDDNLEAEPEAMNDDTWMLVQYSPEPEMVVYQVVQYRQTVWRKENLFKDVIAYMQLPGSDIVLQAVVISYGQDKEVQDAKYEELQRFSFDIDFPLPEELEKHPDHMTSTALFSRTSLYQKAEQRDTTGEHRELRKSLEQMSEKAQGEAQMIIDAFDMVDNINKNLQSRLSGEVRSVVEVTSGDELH
Test: co-IP; sequential depletion co-immunoprecipitation from 2-4 h embryo extracts (20 mM Tris pH 8.0, 150 mM NaCl, 10 mM MgCl2, 2 mM EDTA, 10% glycerol, 0.5% NP-40, 1 mM DTT); first round with rabbit anti-Elba1, anti-Elba3 or IgG, second round from the supernatant; western blot

B1: Elba1 (protein, UniProt Q9VR17 1-363)
chain: MINRRQRLEFALTLLPYDPETVQLSETQKKVEAIIARLRTDDSFTEEESDDCKVRRIQDANEFADSAMRHIEMSDSGKLSTLETLTLAAEKLLRTQRSPDQDFDDMVQDVEYSQLMRNTIQAVNEARLKLLQQWERSKRKALDLLTIEIEKVQEMDQEPEHKQSHEQDQDQEQSSEPFNAFRDGADEHNTSTPKTNDEDLGLDDDDEDYVPGGEETMGNKRKRIKKPVTSTPNAKRRCPGFEFDLDGESPMVTIGPNGTEVSRISLSAINWDMTGPSITRKLLCEIFDRDTLAHHTLSGKPSPAFRDCARPSKQQLDPLKVADLVYLMTNSLDMTPREVRTAITTKCADENKMLRSRMQRKSK
  binding: binds
